Experimental data: ChEMBL document CHEMBL4261608, “Design, synthesis and anti-mycobacterial activity evaluation of benzofuran-isatin hybrids” (Eur J Med Chem, 2018)
Converted amounts (≈) assume the structure as drawn.

Test system: Mycobacterium tuberculosis
Test: Antimycobacterial activity against ethambutol/isoniazid/rifampicin-resistant Mycobacterium tuberculosis incubated for 7 days by rapid direct susceptibility test
Assay type: functional
Conditions: 168 h

CO[C@H]1/C=C/O[C@@]2(C)Oc3c(C)c(O)c4c(O)c(c(/C=N/N5CCN(C)CC5)c(O)c4c3C2=O)NC(=O)/C(C)=C\C=C\[C@H](C)[C@H](O)[C@@H](C)[C@@H](O)[C@@H](C)[C@H](OC(C)=O)[C@@H]1C [RIFAMPIN]
MIC: 64 µg/mL (≈ 77.8 µM)
